Test results published in the supplement of paper PMC3334620.
The full ranking holds about 33,000 sequences; the median of “E-score (-0.5 to 0.5)” is about -0.0059, and the highest 2% start at about 0.26. Some of the results follow.

Biological target: T1, Cin5 (UniProt P40917)
T1 sequence: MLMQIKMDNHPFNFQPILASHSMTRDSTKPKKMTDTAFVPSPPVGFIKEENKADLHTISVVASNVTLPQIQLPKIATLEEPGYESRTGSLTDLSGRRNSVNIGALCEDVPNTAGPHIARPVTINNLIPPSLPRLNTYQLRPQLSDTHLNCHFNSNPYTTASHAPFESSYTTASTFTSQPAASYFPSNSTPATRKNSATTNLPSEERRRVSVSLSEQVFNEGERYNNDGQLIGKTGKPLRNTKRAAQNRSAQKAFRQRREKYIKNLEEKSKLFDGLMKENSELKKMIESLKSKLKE
Assay: PBM E-score (8-mer binding enrichment) (E-score (-0.5 to 0.5)); higher = stronger / more preferred TF binding
Settings: protein concentration: 100 nM; construct: GST-full length
Experimental: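 Universal 'all 10-mer' protein binding microarrays (Agilent AMADID 015681) probed with GST-tagged S. cerevisiae TFs (full-length or DBD) made by in vitro transcription/translation (PURExpress), about 100-200 nM. Bound TF was detected with fluorescent anti-GST. Each ungapped 8-mer (which stands for itself and its reverse complement) is scored by the PBM enrichment score (E-score), a modified Wilcoxon-Mann-Whitney statistic from -0.5 to +0.5, computed with the Universal PBM Analysis Suite. Scale: above 0.35 generally sequence-specific binding.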

Sequence | PBM E-score
GATAACGA | 0.246
CTCAAACC | -0.0558
AATGGCGG | 0.0507
ATGCTGCG | -0.146
ACTAGTTG | 0.0801
GTACAGAC | -0.168
CCATCTTA | 0.0138
CACAGTAG | -0.0191
CGAGGGAG | -0.158
AATCGGTC | 0.0656
CCCTCTGC | -0.317
CCGATACA | 0.121
CATCTACC | 0.129
AACACGGA | 0.102
ATAGTGCG | 0.122
ACTAAGTA | 0.096
CCGGCCAC | -0.222
AAGGGCGC | -0.0242
AGGTATGC | 0.137
CAGCGTTA | -0.0199
TAAATAAA | 0.211
CGGACTTA | -0.209
GACAGGTC | -0.189
GCAGGCGA | -0.122
CCTTAAGC | -0.123

Sequence | PBM E-score
CGACGAGC | -0.13
ACTGGGGC | -0.0635
TCGGAGAA | -0.108
TCGAGCAA | 0.0406
AGGACATG | -0.0701
ATAGGCGA | 0.114
GGCTGACC | -0.0971
AACAATCG | 0.0555
CGGTCTAC | -0.16
GATAACCA | 0.178
CGTTAGTA | 0.158
AACTAGTG | -0.034
CGTCCGAG | -0.0954
CAATCCTA | -0.104
AGTCGGGG | -0.205
AGACCTAG | -0.0761
CCCCTAGC | -0.32
GGCACGCA | -0.152
ACAGTAAC | 0.177
ACGCGGGG | 0.109
CACTGCTA | -0.0897
CTATCACC | -0.119
AGACGCTC | -0.288
AGATCCCA | -0.0937
CTTTACAA | 0.0323

Sequence | PBM E-score
CTTCTTGA | 0.023
AAATACGT | 0.1
CTCTGCGA | -0.102
CTCGTTAC | 0.036
TATGTCGA | 0.0777
CCGACCCC | -0.304
AAGGCTCC | -0.406
AACGAACG | -0.0166
CTTGTCTA | -0.0372
AGATTGTC | -0.0529
GGAGTCAA | -0.0731
ACCAGAGA | 0.0441
GGCGAATA | 0.14
GCACTAAA | 0.0831
ACTGGACG | -0.0204
CAGCTGGA | 0.123
GTTAACGA | 0.112
GCTAGGCC | -0.164
AACTATGG | -0.0546
AGTATTAT | 0.0851
AGAACTTC | -0.217
CTATTTGA | 0.207
TAATGTCA | 0.177
GAAGATAC | 0.0803
CCCACCCA | 0.21

Sequence | PBM E-score
AACTAGGA | -0.00449
AGGACAGG | -0.224
CAAAAATG | 0.0633
AAAGGTTG | -0.127
CCTGACGC | -0.227
AGAGCGCG | -0.0758
CCCTATTA | -0.0143
ACAGGGTG | -0.183
ATCTCAAC | 0.154
CAGGCCAA | -0.149
AGTTAACT | 0.069
CATGTCAA | -0.0622
CCAAAGCG | -0.0566
ATATTGGG | 0.131
GAATCAGC | -0.00827
AATGACCC | -0.00437
AATACGCG | 0.0568
CCCCTATA | -0.113
TATCATCA | 0.203
ACTCGATA | 0.147
CATCGAAA | -0.0105
AATGTCGG | -0.0577
CCGTGTCG | -0.195
ACAGAGCC | -0.0715
GTCAACTA | 0.171

Some of the entries above in a different format:
CCCTCTGC
  PBM E-score: -0.317
CGACGAGC
  PBM E-score: -0.13
CTCTGCGA
  PBM E-score: -0.102
CCGACCCC
  PBM E-score: -0.304

(next part)

Sequence | PBM E-score
ACAGCGGT | -0.0911
GGCGTTAA | -0.0937
ATCACGGA | 0.211
CTACGTCA | -0.0458
CACGTTAG | -0.0237
CACCAATC | 0.133
CTGGCAGA | -0.107
ACGAGTCT | -0.141
GCCAGACC | -0.216
CTACGGAG | -0.0842
CAAGCTAC | -0.105
AGGGCTTG | -0.045
CGGGATAG | 0.0723
ATGCGCCC | 0.0735
AGCTGGAG | -0.165
ATCGTTTA | 0.125
CGTTGGGA | -0.0923
GACAGTAA | 0.111
TGAATAAA | 0.0484
ATGAAGGG | -0.0851
ACAATTCC | 0.111
ACAACGAA | 0.166
CGCCGAAG | -0.0766
ACCACTGG | 0.00337
ACTGCAAT | 0.107

Sequence | PBM E-score
GCCCAGGC | -0.288
ACTCGCGA | 0.214
GACGCGCC | -0.155
AGCAGCAG | -0.0447
CGACCACA | -0.0683
CAAAATGA | 0.0614
GTGGTATA | 0.0965
ATTATGGC | 0.215
AACATAAT | 0.346
CCTTATCC | -0.181
ACGAGCAA | -0.148
CCCCCTGA | -0.435
AGGGGGCA | -0.297
AAGAAACT | 0.0655
CGATCCCA | -0.137
ATCTGTTA | 0.0842
CAATTTTC | 0.167
AGATCCTC | -0.0453
CTATCGTA | 0.00956
ACCATGAG | 0.0218
CAATGAAC | 0.0503
ACACCACG | -0.0488
AGAGAGCC | -0.283
ATGTTTTA | 0.0321
AGCATCTG | -0.0965

Sequence | PBM E-score
TAACCTGA | -0.0251
TTGATCAA | 0.0336
ACGGACGA | 0.0654
CCAAGCCC | -0.195
CAGTAACA | -0.0408
GTTGCGGA | 0.011
ACGAATCC | -0.0262
TACAACCA | 0.0987
CTTTTATA | -0.0821
AGCTCTCC | -0.174
CCGCAGTC | -0.143
CCTTACAG | -0.15
TACTTAGA | 0.0181
ATTCTACA | 0.216
AGAGGGCC | -0.335
AAATTGGG | 0.122
ACCAGGCA | -0.151
CTAACGCC | -0.166
GTGGGATA | 0.121
ATCAGTGG | 0.0229
ACATTGGG | -0.199
AGGGTTAT | 0.0281
GCTATGTA | -0.0403
CCATGAGA | 0.0345
AATATGGC | 0.0377

Sequence | PBM E-score
AGTGCACA | -0.125
CAAAATGC | 0.00999
AGCCTGTC | -0.148
TCCGGGCA | -0.135
CCGAGTTC | 0.00797
TCCTAGAA | -0.157
ATAGGGCC | -0.1
CCTCGATC | -0.0331
CGATACGC | -0.0592
GAAACCAA | 0.138
AAGCGCGC | 0.186
ACGTGCTG | 0.00168
CTGTGCCC | -0.115
AGTGTTCA | 0.181
GAGGAGAC | -0.15
ACCCGTCC | -0.0181
GCCTCCAC | -0.257
AGCTCGTG | 0.0555
ACCGATCC | -0.145
CTGCACGA | 0.00828
AAACGTTT | -0.00291
CCTTTAGC | -0.109
CATACCGC | -0.00427
AAACAGTA | 0.11
GCATATGA | 0.197

Sequence | PBM E-score
AATGGGCG | -0.101
AAGAGTTA | -0.0309
CGAGCCTA | -0.134
GTCACCAA | -0.0845
AATGGGGA | 0.0144
TGGGGGAA | -0.365
ACGCGCTG | -0.032
CCACGGTA | -0.141
GACACAAC | -0.0406
AGGCAGGG | 0.0528
AGGAGAGG | -0.178
CAGCGAGC | -0.0678
ATAGGAAT | -0.039
GAAGCCCC | -0.179
GAAATACC | 0.0277
CAGCATGG | -0.0225
CTTCATGA | 0.193
ATATGACC | -0.101
GAACGCTC | -0.118

Given field by field: part of the list above.
AAACAGTA
  PBM E-score = 0.11
GCATATGA
  PBM E-score = 0.197
AATGGGCG
  PBM E-score = -0.101
AAGAGTTA
  PBM E-score = -0.0309
